Results from publication doi:10.1101/287508.
These are yes or no findings as the source states them, for the method shown. In cells and extracts the contact can be indirect. For part of these data: Binding can be weak; no strength is given.

Columns and labels:
Assay in all cases: pull-down
[1] = target: GST-LIMK1 ΔKinase (lacking residues 301–648) (mouse) (UniProt P53668)
[2] = target: GST-LIMK1 ΔLIM1 (lacking residues 1–76) (mouse) (UniProt P53668)
[3] = target: GST-LIMK1 ΔLIM1, 2 (lacking residues 1–138) (mouse) (UniProt P53668)

Flag-tagged HopQ1 (from UniProt Q888Y7 1-447)
binding [1]: binds
binding [2]: binds
binding [3]: no binding
